What all share (experiment): co-IP
The target of experiment [1] is T1, IRF3, expressed in HEK293T cells (UniProt Q14653).
T1 sequence: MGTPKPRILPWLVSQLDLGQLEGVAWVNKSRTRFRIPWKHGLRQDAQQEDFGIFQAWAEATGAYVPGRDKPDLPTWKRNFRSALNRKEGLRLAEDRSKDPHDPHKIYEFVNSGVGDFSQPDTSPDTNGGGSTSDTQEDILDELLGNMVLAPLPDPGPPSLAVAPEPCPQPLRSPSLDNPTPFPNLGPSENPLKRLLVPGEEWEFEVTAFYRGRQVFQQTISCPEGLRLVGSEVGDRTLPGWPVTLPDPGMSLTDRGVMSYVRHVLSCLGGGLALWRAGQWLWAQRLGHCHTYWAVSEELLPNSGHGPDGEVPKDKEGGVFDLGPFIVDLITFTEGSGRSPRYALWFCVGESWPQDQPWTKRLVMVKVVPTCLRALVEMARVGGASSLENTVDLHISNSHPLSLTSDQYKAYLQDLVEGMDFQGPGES

By UniProt entry, the sequences of proteins in these tests, tags left out.
UniProt P42685: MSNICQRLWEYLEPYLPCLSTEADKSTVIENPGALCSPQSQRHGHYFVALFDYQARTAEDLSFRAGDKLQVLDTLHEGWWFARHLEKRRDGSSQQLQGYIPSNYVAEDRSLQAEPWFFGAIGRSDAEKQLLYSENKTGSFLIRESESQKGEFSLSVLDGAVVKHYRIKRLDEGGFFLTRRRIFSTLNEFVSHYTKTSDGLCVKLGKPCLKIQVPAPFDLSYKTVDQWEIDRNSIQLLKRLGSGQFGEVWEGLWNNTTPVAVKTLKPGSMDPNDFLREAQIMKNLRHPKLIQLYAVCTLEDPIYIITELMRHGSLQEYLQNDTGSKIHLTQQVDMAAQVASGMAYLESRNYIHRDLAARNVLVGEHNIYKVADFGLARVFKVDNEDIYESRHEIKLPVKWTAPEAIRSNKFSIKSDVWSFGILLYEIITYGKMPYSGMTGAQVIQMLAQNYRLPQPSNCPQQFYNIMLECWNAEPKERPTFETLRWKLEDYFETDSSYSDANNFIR

The target of experiment [2] is T2, TBK1, expressed in HEK293T cells (UniProt Q9UHD2).
T2 sequence: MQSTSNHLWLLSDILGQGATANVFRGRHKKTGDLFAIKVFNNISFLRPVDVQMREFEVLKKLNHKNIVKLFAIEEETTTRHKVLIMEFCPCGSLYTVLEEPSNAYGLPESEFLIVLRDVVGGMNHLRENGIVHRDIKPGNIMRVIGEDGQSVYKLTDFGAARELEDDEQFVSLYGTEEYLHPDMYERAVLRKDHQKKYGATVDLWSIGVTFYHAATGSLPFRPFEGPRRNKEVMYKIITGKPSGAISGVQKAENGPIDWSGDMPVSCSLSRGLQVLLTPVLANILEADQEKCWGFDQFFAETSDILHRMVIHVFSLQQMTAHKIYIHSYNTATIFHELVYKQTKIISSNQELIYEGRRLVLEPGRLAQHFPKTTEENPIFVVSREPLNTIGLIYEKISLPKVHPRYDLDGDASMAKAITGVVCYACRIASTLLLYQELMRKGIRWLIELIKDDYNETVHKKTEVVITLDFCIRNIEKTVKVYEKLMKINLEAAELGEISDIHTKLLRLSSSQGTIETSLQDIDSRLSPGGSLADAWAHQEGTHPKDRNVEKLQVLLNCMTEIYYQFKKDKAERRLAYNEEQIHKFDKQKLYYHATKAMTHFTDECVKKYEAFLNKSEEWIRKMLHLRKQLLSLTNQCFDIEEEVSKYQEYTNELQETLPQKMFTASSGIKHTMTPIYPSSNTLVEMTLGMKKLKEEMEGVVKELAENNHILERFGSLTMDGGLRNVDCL

In experiment [3] the target is Fyn-related kinase (Frk), expressed in HEK293T cells (UniProt P42685).

These are yes or no findings as the source states them, for the method shown. Binding seen in cells or lysates may run through a third protein. Some entries that bind do so weakly or less than the wild type.

In the case of “Fyn-related kinase (Frk), expressed in HEK293T cells (from UniProt P42685 1-505) (enzyme)”, the binding entry in experiment [1] and in experiment [2] was “binds” in each case.

B1: TBK1, expressed in HEK293T cells (enzyme, UniProt Q9UHD2 1-729)
chain: MQSTSNHLWLLSDILGQGATANVFRGRHKKTGDLFAIKVFNNISFLRPVDVQMREFEVLKKLNHKNIVKLFAIEEETTTRHKVLIMEFCPCGSLYTVLEEPSNAYGLPESEFLIVLRDVVGGMNHLRENGIVHRDIKPGNIMRVIGEDGQSVYKLTDFGAARELEDDEQFVSLYGTEEYLHPDMYERAVLRKDHQKKYGATVDLWSIGVTFYHAATGSLPFRPFEGPRRNKEVMYKIITGKPSGAISGVQKAENGPIDWSGDMPVSCSLSRGLQVLLTPVLANILEADQEKCWGFDQFFAETSDILHRMVIHVFSLQQMTAHKIYIHSYNTATIFHELVYKQTKIISSNQELIYEGRRLVLEPGRLAQHFPKTTEENPIFVVSREPLNTIGLIYEKISLPKVHPRYDLDGDASMAKAITGVVCYACRIASTLLLYQELMRKGIRWLIELIKDDYNETVHKKTEVVITLDFCIRNIEKTVKVYEKLMKINLEAAELGEISDIHTKLLRLSSSQGTIETSLQDIDSRLSPGGSLADAWAHQEGTHPKDRNVEKLQVLLNCMTEIYYQFKKDKAERRLAYNEEQIHKFDKQKLYYHATKAMTHFTDECVKKYEAFLNKSEEWIRKMLHLRKQLLSLTNQCFDIEEEVSKYQEYTNELQETLPQKMFTASSGIKHTMTPIYPSSNTLVEMTLGMKKLKEEMEGVVKELAENNHILERFGSLTMDGGLRNVDCL
As for B1, in experiment [3], the binding entry is listed as “binds”.
